Measurements reported in patent US8992932B2 (Seattle Genetics, Inc., priority 2011, dated 2015).

Test: general procedure: solution-phase peptide synthesis; HATU/DIPEA or EDC/HOBt/DIPEA
Conditions: late stage modification step, trifluoroacetate

**Q.** For “N-(6-{[(55)-5-Amino-5-carboxypentyl]amino}-6-oxohexyl)-N-methyl-L-valyl-N-[(3R,4S,5S)-1-{(2S)-2-[(1R,2R)-3-{[(1S)-1-carboxy-2-(1H-indol-3-yl)ethyl]amino}-1-methoxy-2-methyl-3-oxopropyl]pyrrolidin-1-yl}-3-methoxy-5-methyl-1-oxoheptan-4-yl]”, which step yield is on record?
**A.** The step yield was 99% of theory.

**Q.** With “N-(6-{[(55)-5-Amino-5-carboxypentyl]amino}-6-oxohexyl)-N-methyl-L-valyl-N-[(3R,4S,5S)-1-{(2S)-2-[(1R,2R)-3-{[(1S)-1-carboxy-2-(4-hydroxyphenyl)ethyl]amino}-1-methoxy-2-methyl-3-oxopropyl]pyrrolidin-1-yl}-3-methoxy-5-methyl-1-oxoheptan-4-yl]” as the substance, how does the step yield read?
**A.** The step yield was 90% of theory.

**Q.** With “N-methyl-L-valyl-N-[(3R,4S,5S)-3-methoxy-1-{(2S)-2-[(1R,2R)-1-methoxy-2-methyl-3-oxo-3-{[(2S,3E)-1-phenyl-4-(4-sulphophenyl)but-3-en-2-yl]amino}propyl]pyrrolidin-1-yl}-5-methyl-1-oxoheptan-4-yl]-N-methyl-L-valinamide trifluoroacetate” as the substance, how does the step yield read?
**A.** The step yield was 98% of theory.
